Test results: PMC12748195
Results are given in words; binding and its absence hold for the method and conditions named. In cells and extracts the contact can be indirect. Some binding calls cover weakened binding; strength is not graded here.

The chains behind the UniProt entries cited, without tags or fusion partners.
UniProt Q9UM07: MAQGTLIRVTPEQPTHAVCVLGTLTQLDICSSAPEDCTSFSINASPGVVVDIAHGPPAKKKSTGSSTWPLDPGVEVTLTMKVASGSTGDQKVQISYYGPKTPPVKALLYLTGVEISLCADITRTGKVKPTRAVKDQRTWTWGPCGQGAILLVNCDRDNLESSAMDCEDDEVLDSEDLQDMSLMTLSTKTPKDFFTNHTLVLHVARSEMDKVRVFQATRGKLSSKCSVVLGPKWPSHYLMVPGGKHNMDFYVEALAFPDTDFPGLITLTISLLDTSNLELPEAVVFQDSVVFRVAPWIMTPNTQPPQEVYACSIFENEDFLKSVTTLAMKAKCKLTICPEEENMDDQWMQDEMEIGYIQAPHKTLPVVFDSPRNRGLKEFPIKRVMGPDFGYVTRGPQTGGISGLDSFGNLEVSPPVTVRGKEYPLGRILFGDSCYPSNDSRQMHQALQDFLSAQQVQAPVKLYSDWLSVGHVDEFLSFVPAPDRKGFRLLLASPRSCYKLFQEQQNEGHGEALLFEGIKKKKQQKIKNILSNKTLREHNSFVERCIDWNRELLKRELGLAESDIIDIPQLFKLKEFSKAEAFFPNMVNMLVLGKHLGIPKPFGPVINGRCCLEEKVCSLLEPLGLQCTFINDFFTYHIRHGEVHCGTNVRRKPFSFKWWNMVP

Columns and labels:
[1] = target: peptidylarginine deiminase 4 (human (endogenous in primary neutrophils)) (UniProt Q9UM07); assay: condition: only unstimulated, resting neutrophils (no PMA); co-IP; lysate of unstimulated, resting primary human neutrophils (no PMA); protein A/G magnetic beads with anti-PAD4 and anti-S100A8/A9 antibodies, overnight at 4°C; Western blot
[2] = target: peptidylarginine deiminase 4 (human (endogenous in primary neutrophils)) (UniProt Q9UM07); assay: co-IP; lysate of PMA-stimulated primary human neutrophils (IP lysis buffer: 25 mM Tris-HCl pH 7.4, 150 mM NaCl, 1% NP-40, 1 mM EDTA, 5% glycerol); protein A/G magnetic beads with anti-PAD4 and anti-S100A8/A9 antibodies, overnight at 4°C; Western blot; also with DNase I treatment of the lysate before the co-IP (interaction persisted)

B1: S100A8/S100A9 heterodimer (complex, UniProt P05109 1-93; P06702 1-114)
chain 1: MLTELEKALNSIIDVYHKYSLIKGNFHAVYRDDLKKLLETECPQYIRKKGADVWFKELDINTDGAVNFQEFLILVIKMGVAAHKKSHEESHKE
chain 2: MTCKMSQLERNIETIINTFHQYSVKLGHPDTLNQGEFKELVRKDLQNFLKKENKNEKVIEHIMEDLDTNADKQLSFEEFIMLMARLTWASHEKMHEGDEGPGHHHKPGLGEGTP
Which results are given for B1?
binding [1]: no binding; binding [2]: binds
